From patent US20240118267A1, “CELL CULTURE GROWTH APPARATUS AND METHOD OF UNDERSIDE ATTACHMENT TO A SURFACE USING CELL SEEDING” (Georgia Tech Research Corporation, priority 2021, published 2024)
“Also recorded” adds a separate entry of the source. At least one compound was matched to its structure with a doubt left.

What was measured:
[1] = system: primary peripheral human neutrophils; test: Neutrophil transmigration through 96-well epithelial-endothelial Transwell coculture after drug pre-treatment of neutrophils; type: cell-based; conditions: neutrophils pre-treated 2 h at 2, 20 or 200 μM; chemoattractant TNF-α (170 ng/mL) or LTB4 (300 nM); 16 h; brightfield microscopy, qualitative
[2] = system: endothelium of H441-HUVEC co-culture; test: IL-8 on the endothelial side of the H441/HUVEC co-culture (ELISA); type: cell-based, human; conditions: endothelial pre-treatment with the glucocorticoid

SMILES | number of migrated neutrophils (transmigration) [1] | IL-8 production by the endothelium [2]
CCS(=O)(=O)N1CC(CC#N)(n2cc(-c3ncnc4[nH]ccc34)cn2)C1 [Baricitinib] | reduced; also recorded: dose-dependently inhibits transmigration | 
C[C@@H]1C[C@H]2[C@@H]3CCC4=CC(=O)C=C[C@]4(C)[C@@]3(F)[C@@H](O)C[C@]2(C)[C@@]1(O)C(=O)CO [dexamethasone] |  | reduced
